Test results from patent publication US5496717.

System: Sse1825I restriction endonuclease (Streptomyces sp. AH1825 (FERM BP-4836))
Test: enzyme reaction in vitro
Conditions: specific cleavage at heptanucleotide recognition sequence; optimum about 37 C, pH 7.0-9.0; cut position given only in formula image; purified native protein

AATTCCTCGAGAAGGGACCCAACCATGGA (double strand) [Sse1825I cutting-site duplex (inserted in pUC118/pUC119)]
activity on this sequence: active

The exact form of at least one protein or probe is not confirmed.
